Measured values: patent US9801832B2, “Pharmaceutical composition having synergistic action of direct catalase inhibitors and modulators of no metabolism or of extracellular superoxide anion production which lead to catalase destruction” (Universitaetsklinikum Freiburg, priority 2012, dated 2017)
At least one structure is not confirmed: it was looked up by name or label, or the drawing left a doubt.

Test system: MKN-45 gastric carcinoma cells
Assay: Induction of apoptosis in MKN-45 gastric carcinoma cells (percentages of apoptotic cells)
Assay type: cell-based, human
Conditions: 0.1 μg/ml salicylic acid, 6 hours (FIGS. 22-25)
Experimental: 12 500 MKN-45 cells in 100 μl (duplicate batches) were treated with the given concentrations of salicylic acid or remained free from salicylic acid. After 10 minutes the given concentrations of cyanidine were added.
12 500 MKN-45 cells in 100 μl (duplicate batches) were treated with 0.1 μg/ml salicylic acid or remained free from salicylic acid (control). […] After 6.5 hours the percentages of apoptotic cells were determined in duplicate batches.
12 500 MKN-45 cells in 100 μl (duplicate batches) either received no additive (control), 2 mM of the singlet oxygen scavenger histidine or 25 μM Caspase-8 inhibitor. […] After another 15 minutes cyanidine was added in the given concentrations. After 6.5 hours of incubation at 37° C. the percentages of apoptotic cells were determined.
12 500 MKN-45 cells in 100 μl (duplicate batches) either received no additive (control), 2 mM of the singlet oxygen scavenger histidine or 25 μM Caspase-8 inhibitor. […] After 6.5 hours incubation at 37° C. the percentage of apoptotic cells was determined. […]
12 500 MKN-45 cells in 100 μl medium were incubated with increasing concentrations of the given active ingredients, in the presence or absence of 0.1 μg/ml salicylic acid for 6 hours and then, the percentages of the apoptotic cells were determined (repeated determination).

Structure (SMILES): CCC(C)n1ncn(-c2ccc(N3CCN(c4ccc(OCC5COC(Cn6cncn6)(c6ccc(Cl)cc6Cl)O5)cc4)CC3)cc2)c1=O (stereo not shown) [itraconazol]
- synergistic interaction with salicylic acid in the induction of apoptosis: synergistically reacts
